Measurements from patent US20210369699A1, “TREATMENT OF LUPUS ERYTHEMATOSUS USING S-HYDROXYCHLOROQUINE” (Genovate Biotechnology Co. Ltd., priority 2020, published 2021).
Some of these results come from one statement about several compounds together. At least one structure is not confirmed: it was looked up by name or label, or the drawing left a doubt.

System: IL-17 production in human peripheral blood mononuclear cells (PBMC)
Experiment: IL-17 production in PMA/ionomycin-stimulated PBMC (ELISA)
Type: cell-based
Details: 48 h or 72 h, read-out: absolute IC50 of IL-17 inhibition
Procedure: Hydroxychloroquine (HCQ) and its pure optical isomers S-hydroxychloroquine (S-HCQ; enantiomeric excess of 99.0%) and R-hydroxychloroquine (R-HCQ; enantiomeric excess of 98.3%) were tested in an in vitro pharmacodynamic assay to determine their efficacy at inhibiting interleukin 17 (IL-17) production in human peripheral blood mononuclear cells (PBMC) stimulated with phorbol myristate acetate (PMA) and ionomycin.
Cells were cultured at 37° C. with 5% CO2 in RPMI-1640 medium (Gibco, 11875-093) supplemented with 10% Fetal Bovine Serum (Gibco, 10437-028), 10 mM HEPES (Gibco, 15630-080), and 100 U/mL Penicillin/Streptomycin (Gibco, 15140-122).
PBMC were seeded at a density of 10^6 cells/ml in each well of a 96-well round bottom microplate (Corning, 7007) then stimulated with 25 ng/ml PMA and 1 μg/ml ionomycin in the absence and presence of 25 μM, 50 μM, or 100 μM HCQ, S-HCQ or R-HCQ each dissolved in ethanol. The final concentration of ethanol in the culture medium was 0.75%. PBMC treated with 5 μM methylprednisolone served as a positive control.
After incubation for 48 or 72 hours, the cell culture supernatants were collected and stored at −80° C. until analysis. The levels of IL-17 induced by PMA/ionomycin-stimulated PBMC were analyzed using human IL-17 Quantikine ELISA Kit (R & D system, D1700) according to product information.

Row | Compound | IC50 [µM]
1 | CCN(CCO)CCCC(C)Nc1ccnc2cc(Cl)ccc12 (centres unmarked) [R-HCQ, R-hydroxychloroquine] | 50 to 100
2 | CCN(CCO)CCC[C@H](C)Nc1ccnc2cc(Cl)ccc12 [S-HCQ, S-hydroxychloroquine] | 50 to 100
